In US20210171576A1, “METHODS FOR TREATING CANCER WITH ACYLDEPSIPEPTIDE ANALOGS” (priority 2018, published 2021):

Tested on: mitochondrial proteins of HEK293 T-REx cells
Assay: Mitochondrial proteome profiling for WT and CLPP^−/− (fold change CLPP^−/−/WT)
Set-up: species or system human
Details: fold change of mitochondrial protein detected in CLPP knockout compared to WT HEK293 T-REx cells; MaxQuant total peptide ion intensity

| Molecule | Avg. fold change (CLPP KO/WT) |
| --- | --- |
| GLRX5 (protein, UniProt Q86SX6 32-157, looked up) Glutaredoxin-related protein …: AGSGAGGGGSAEQLDALVKKDKVVVFLKGTPEQPQCGFSNAVVQILRLHGVRDYAAYNVLDDPELRQGIKDYSNWPTIPQVYLNGEFVGGCDILLQMHQNGDLVEELKKLGIHSALLDEKKDQDSK | 1.46 |
| GPD2 (protein, UniProt P43304 43-727, looked up) Glycerol-3-phosphate …: ADCISEPVNREPPSREAQLLTLQNTSEFDILVIGGGATGSGCALDAVTRGLKTALVERDDFSSGTSSRSTKLIHGGVRYLQKAIMKLDIEQYRMVKEALHERANLLEIAPHLSAPLPIMLPVYKWWQLPYYWVGIKLYDLVAGSNCLKSSYVLSKSRALEHFPMLQKDKLVGAIVYYDGQHNDARMNLAIALTAARYGAATANYMEVVSLLKKTDPQTGKVRVSGARCKDVLTGQEFDVRAKCVINATGPFTDSVRKMDDKDAAAICQPSAGVHIVMPGYYSPESMGLLDPATSDGRVIFFLPWQKMTIAGTTDTPTDVTHHPIPSEEDINFILNEVRNYLSCDVEVRRGDVLAAWSGIRPLVTDPKSADTQSISRNHVVDISESGLITIAGGKWTTYRSMAEDTINAAVKTHNLKAGPSRTVGLFLQGGKDWSPTLYIRLVQDYGLESEVAQHLAATYGDKAFEVAKMASVTGKRWPIVGVRLVSEFPYIEAEVKYGIKEYACTAVDMISRRTRLAFLNVQAAEEALPRIVELMGRELNWDDYKKQEQLETARKFLYYEMGYKSRSEQLTDRSEISLLPSDIDRYKKRFHKFDADQKGFITIVDVQRVLESINVQMDENTLHEILNEVDLNKNGQVELNEFLQLMSAIQKGRVSGSRLAILMKTAEENLDRRVPIPVDRSCGGL | −1.31 |
| GSTK1 (protein, UniProt Q9Y2Q3 1-226, looked up) Glutathione S-transferase …: MGPLPRTVELFYDVLSPYSWLGFEILCRYQNIWNINLQLRPSLITGIMKDSGNKPPGLLPRKGLYMANDLKLLRHHLQIPIHFPKDFLSVMLEKGSLSAMRFLTAVNLEHPEMLEKASRELWMRVWSRNEDITEPQSILAAAEKAGMSAEQAQGLLEKIATPKVKNQLKETTEAACRYGAFGLPITVAHVDGQTHMLFGSDRMELLAHLLGEKWMGPIPPAVNARL | 1.29 |
| GRPEL1 (protein, UniProt Q9HAV7 28-217, looked up) GrpE protein homolog 1, …: CTATKQKNSGQNLEEDMGQSEQKADPPATEKTLLEEKVKLEEQLKETVEKYKRALADTENLRQRSQKLVEEAKLYGIQAFCKDLLEVADVLEKATQCVPKEEIKDDNPHLKNLYEGLVMTEVQIQKVFTKHGLLKLNPVGAKFDPYEHEALFHTPVEGKEPGTVALVSKVGYKLHGRTLRPALVGVVKEA | 1.21 |
| GCDH (protein, UniProt Q92947 45-438, looked up) Glutaryl-CoA dehydrogenase, …: RPEFDWQDPLVLEEQLTTDEILIRDTFRTYCQERLMPRILLANRNEVFHREIISEMGELGVLGPTIKGYGCAGVSSVAYGLLARELERVDSGYRSAMSVQSSLVMHPIYAYGSEEQRQKYLPQLAKGELLGCFGLTEPNSGSDPSSMETRAHYNSSNKSYTLNGTKTWITNSPMADLFVVWARCEDGCIRGFLLEKGMRGLSAPRIQGKFSLRASATGMIIMDGVEVPEENVLPGASSLGGPFGCLNNARYGIAWGVLGASEFCLHTARQYALDRMQFGVPLARNQLIQKKLADMLTEITLGLHACLQLGRLKDQDKAAPEMVSLLKRNNCGKALDIARQARDMLGGNGISDEYHVIRHAMNLEAVNTYEGTHDIHALILGRAITGIQAFTASK | 1.16 |
| FH (protein, UniProt P07954 45-510, looked up) Fumarate hydratase, …: ASQNSFRIEYDTFGELKVPNDKYYGAQTVRSTMNFKIGGVTERMPTPVIKAFGILKRAAAEVNQDYGLDPKIANAIMKAADEVAEGKLNDHFPLVVWQTGSGTQTNMNVNEVISNRAIEMLGGELGSKIPVHPNDHVNKSQSSNDTFPTAMHIAAAIEVHEVLLPGLQKLHDALDAKSKEFAQIIKIGRTHTQDAVPLTLGQEFSGYVQQVKYAMTRIKAAMPRIYELAAGGTAVGTGLNTRIGFAEKVAAKVAALTGLPFVTAPNKFEALAAHDALVELSGAMNTTACSLMKIANDIRFLGSGPRSGLGELILPENEPGSSIMPGKVNPTQCEAMTMVAAQVMGNHVAVTVGGSNGHFELNVFKPMMIKNVLHSARLLGDASVSFTENCVVGIQANTERINKLMNESLMLVTALNPHIGYDKAAKIAKTAHKNGSTLKETAIELGYLTAEQFDEWVKPKDMLGPK | −1.39 |
